# In paper PMC7862700:
# By UniProt entry, the sequences of proteins in these tests, tags left out. Where a name states a change or a piece, a line headed by the entry shows the natural chain unless it says otherwise.
# UniProt P32519: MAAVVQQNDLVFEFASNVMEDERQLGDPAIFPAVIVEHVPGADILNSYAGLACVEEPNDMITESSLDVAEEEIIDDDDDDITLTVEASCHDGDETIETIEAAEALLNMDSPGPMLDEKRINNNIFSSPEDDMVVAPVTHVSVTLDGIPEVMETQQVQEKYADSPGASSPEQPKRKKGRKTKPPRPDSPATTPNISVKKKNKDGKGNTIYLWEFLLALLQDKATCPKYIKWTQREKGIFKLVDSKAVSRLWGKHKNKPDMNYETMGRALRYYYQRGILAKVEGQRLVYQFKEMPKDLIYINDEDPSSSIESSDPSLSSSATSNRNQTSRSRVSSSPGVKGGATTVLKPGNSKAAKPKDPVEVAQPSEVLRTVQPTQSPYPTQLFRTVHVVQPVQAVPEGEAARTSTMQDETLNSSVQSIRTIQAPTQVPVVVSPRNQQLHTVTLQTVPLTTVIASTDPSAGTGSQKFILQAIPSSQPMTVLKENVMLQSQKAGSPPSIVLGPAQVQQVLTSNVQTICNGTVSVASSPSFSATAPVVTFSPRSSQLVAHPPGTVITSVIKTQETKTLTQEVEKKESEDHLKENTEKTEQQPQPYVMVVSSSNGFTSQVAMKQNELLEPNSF
# UniProt P50549: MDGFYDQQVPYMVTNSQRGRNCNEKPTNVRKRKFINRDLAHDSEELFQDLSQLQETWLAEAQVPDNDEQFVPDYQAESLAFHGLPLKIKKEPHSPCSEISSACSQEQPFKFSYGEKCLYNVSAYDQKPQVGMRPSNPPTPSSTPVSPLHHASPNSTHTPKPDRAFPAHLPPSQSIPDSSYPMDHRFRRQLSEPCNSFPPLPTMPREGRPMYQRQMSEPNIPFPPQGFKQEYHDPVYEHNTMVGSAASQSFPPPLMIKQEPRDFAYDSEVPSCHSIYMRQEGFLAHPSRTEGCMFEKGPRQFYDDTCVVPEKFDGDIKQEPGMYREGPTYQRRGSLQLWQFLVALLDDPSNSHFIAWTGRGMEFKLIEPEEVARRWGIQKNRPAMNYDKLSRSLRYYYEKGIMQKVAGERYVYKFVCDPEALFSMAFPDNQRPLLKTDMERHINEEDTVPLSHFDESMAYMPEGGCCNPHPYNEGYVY
# This is a selection; strong and weak results do not stand in their true shares. For part of these data: At the low end of the ranking the order means little. Some of the results follow. For part of these data: Construct or isoform of the protein are uncertain.
# Columns and labels:
# Test in all cases: DAPPL (digital affinity profiling via proximity ligation, sequencing)
# Details in all cases: 10 mM Tris-HCl pH 7.5, 50 mM NaCl, 1 mM DTT, 4% glycerol, room temperature, 30 min; GST-TFs on glutathione beads, 16-mer random dsDNA library, 0.1% …; high values mean tight binding; double strand, one strand shown; scale: fold enrichment (6-mer frequency, TF over GST control)
# ERG = biological target: T1, ERG (UniProt P11308)
# T1 sequence: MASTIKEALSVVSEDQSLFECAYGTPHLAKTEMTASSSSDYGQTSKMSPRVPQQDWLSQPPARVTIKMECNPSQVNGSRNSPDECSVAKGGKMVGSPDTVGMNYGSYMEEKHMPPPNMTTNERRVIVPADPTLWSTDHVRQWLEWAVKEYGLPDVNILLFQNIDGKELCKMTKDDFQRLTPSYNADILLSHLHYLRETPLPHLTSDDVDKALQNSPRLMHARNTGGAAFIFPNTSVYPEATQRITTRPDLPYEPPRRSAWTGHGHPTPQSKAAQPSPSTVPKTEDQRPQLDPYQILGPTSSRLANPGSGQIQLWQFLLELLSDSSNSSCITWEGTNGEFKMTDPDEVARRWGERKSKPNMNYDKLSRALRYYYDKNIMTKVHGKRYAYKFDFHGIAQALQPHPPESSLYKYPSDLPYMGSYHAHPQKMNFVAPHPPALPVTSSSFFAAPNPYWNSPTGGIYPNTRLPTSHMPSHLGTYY
# ELF1 = ELF1 (UniProt P32519)
# ELK4 = biological target: T2, ELK4 (UniProt P28324-2)
# T2 sequence: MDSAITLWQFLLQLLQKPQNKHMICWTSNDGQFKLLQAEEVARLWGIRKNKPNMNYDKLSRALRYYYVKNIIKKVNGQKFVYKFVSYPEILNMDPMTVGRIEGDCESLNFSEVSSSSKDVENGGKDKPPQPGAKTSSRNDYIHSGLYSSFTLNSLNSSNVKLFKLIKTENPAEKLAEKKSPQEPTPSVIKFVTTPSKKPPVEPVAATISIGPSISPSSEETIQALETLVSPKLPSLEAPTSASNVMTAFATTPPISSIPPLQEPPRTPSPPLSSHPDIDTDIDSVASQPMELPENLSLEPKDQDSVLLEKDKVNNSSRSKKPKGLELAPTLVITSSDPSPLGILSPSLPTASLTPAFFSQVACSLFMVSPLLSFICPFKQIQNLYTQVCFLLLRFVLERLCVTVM
# ETV4 = biological target: T3, ETV4 (UniProt P43268)
# T3 sequence: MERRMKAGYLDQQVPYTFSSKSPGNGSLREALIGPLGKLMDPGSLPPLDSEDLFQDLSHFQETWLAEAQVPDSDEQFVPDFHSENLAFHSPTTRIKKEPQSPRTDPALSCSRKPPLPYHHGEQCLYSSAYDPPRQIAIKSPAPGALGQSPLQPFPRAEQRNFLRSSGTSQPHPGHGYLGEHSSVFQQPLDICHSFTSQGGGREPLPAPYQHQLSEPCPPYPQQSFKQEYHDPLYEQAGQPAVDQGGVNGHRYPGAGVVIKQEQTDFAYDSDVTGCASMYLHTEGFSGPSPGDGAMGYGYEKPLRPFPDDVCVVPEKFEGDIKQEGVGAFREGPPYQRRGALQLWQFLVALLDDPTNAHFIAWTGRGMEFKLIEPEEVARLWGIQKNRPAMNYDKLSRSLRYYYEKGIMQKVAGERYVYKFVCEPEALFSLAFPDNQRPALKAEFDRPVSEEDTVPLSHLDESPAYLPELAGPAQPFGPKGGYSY
# ETV1 = ETV1 (UniProt P50549)
# ERF = biological target: T4, ERF (UniProt P50548)
# T4 sequence: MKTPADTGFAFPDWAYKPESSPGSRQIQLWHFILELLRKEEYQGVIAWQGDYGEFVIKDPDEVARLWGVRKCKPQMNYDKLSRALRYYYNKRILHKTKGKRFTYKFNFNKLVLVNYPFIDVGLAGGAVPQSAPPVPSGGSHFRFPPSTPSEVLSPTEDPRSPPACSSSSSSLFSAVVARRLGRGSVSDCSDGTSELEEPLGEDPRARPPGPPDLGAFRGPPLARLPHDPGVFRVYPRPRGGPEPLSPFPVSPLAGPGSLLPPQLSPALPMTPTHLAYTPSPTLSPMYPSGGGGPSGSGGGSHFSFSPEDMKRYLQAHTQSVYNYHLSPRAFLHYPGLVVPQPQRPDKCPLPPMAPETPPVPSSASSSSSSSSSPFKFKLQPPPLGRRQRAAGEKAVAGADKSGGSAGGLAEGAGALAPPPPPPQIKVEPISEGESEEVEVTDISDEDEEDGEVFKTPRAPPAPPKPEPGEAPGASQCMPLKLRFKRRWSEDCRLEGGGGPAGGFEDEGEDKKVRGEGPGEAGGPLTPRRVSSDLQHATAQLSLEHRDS
sequence,measurement,setting,value
GTGGTT,binding signal,ERG,0.904
same,binding signal,ELF1,0.859
same,binding signal,ELK4,0.88
same,binding signal,ETV4,0.885
same,binding signal,ETV1,0.88
same,binding signal,ERF,0.984
AGCCCA,binding signal,ERG,0.93
same,binding signal,ELF1,0.974
same,binding signal,ELK4,0.944
same,binding signal,ETV4,1
same,binding signal,ETV1,0.946
same,binding signal,ERF,0.999
GATCTG,binding signal,ERG,0.923
same,binding signal,ELF1,0.899
same,binding signal,ELK4,0.912
same,binding signal,ETV4,0.934
same,binding signal,ETV1,0.964
same,binding signal,ERF,0.995
GTGTAA,binding signal,ERG,0.955
same,binding signal,ELF1,0.875
same,binding signal,ELK4,0.868
same,binding signal,ETV4,0.972
same,binding signal,ETV1,0.886
same,binding signal,ERF,0.905
CGGACC,binding signal,ERG,0.797
same,binding signal,ELF1,0.838
same,binding signal,ELK4,0.731
same,binding signal,ETV4,0.906
same,binding signal,ETV1,0.783
same,binding signal,ERF,0.768
TCGAGG,binding signal,ERG,0.805
same,binding signal,ELF1,0.749
same,binding signal,ELK4,0.793
same,binding signal,ETV4,0.737
same,binding signal,ETV1,0.86
same,binding signal,ERF,0.918
GAGAAA,binding signal,ERG,0.697
same,binding signal,ELF1,0.743
same,binding signal,ELK4,0.65
same,binding signal,ETV4,0.689
same,binding signal,ETV1,0.699
same,binding signal,ERF,0.771
GCCATC,binding signal,ERG,0.997
same,binding signal,ELF1,0.982
same,binding signal,ELK4,0.958
same,binding signal,ETV4,0.868
same,binding signal,ETV1,0.928
same,binding signal,ERF,0.935
GACTCG,binding signal,ERG,0.833
same,binding signal,ELF1,0.92
same,binding signal,ELK4,0.921
same,binding signal,ETV4,0.894
same,binding signal,ETV1,0.969
same,binding signal,ERF,0.878
ACGCGA,binding signal,ERG,0.853
same,binding signal,ELF1,0.904
same,binding signal,ELK4,0.913
same,binding signal,ETV4,0.866
same,binding signal,ETV1,0.869
same,binding signal,ERF,0.898
GACCGA,binding signal,ERG,0.839
same,binding signal,ELF1,0.898
same,binding signal,ELK4,0.844
same,binding signal,ETV4,0.874
same,binding signal,ETV1,0.853
same,binding signal,ERF,0.814
GCGAAA,binding signal,ERG,0.939
same,binding signal,ELF1,0.951
same,binding signal,ELK4,0.953
same,binding signal,ETV4,0.965
same,binding signal,ETV1,0.88
same,binding signal,ERF,0.904
TTGGGA,binding signal,ERG,0.923
same,binding signal,ELF1,0.911
same,binding signal,ELK4,0.896
same,binding signal,ETV4,0.854
same,binding signal,ETV1,0.93
same,binding signal,ERF,0.965
AGACTC,binding signal,ERG,0.943
same,binding signal,ELF1,0.938
same,binding signal,ELK4,0.79
same,binding signal,ETV4,0.964
same,binding signal,ETV1,0.92
same,binding signal,ERF,0.981
CTAGGG,binding signal,ERG,0.86
same,binding signal,ELF1,0.87
same,binding signal,ELK4,0.928
same,binding signal,ETV4,0.928
same,binding signal,ETV1,0.848
same,binding signal,ERF,0.9
ATAACG,binding signal,ERG,0.984
same,binding signal,ELF1,0.971
same,binding signal,ELK4,0.904
same,binding signal,ETV4,1.02
same,binding signal,ETV1,0.988
same,binding signal,ERF,0.89
ACGCCA,binding signal,ERG,0.879
same,binding signal,ELF1,0.924
same,binding signal,ELK4,0.995
same,binding signal,ETV4,0.869
same,binding signal,ETV1,0.873
same,binding signal,ERF,0.932
ACCAAG,binding signal,ERG,0.924
same,binding signal,ELF1,0.941
same,binding signal,ELK4,0.965
same,binding signal,ETV4,0.881
same,binding signal,ETV1,0.899
same,binding signal,ERF,0.986
TAGGCC,binding signal,ERG,0.893
same,binding signal,ELF1,0.965
same,binding signal,ELK4,0.951
same,binding signal,ETV4,0.966
same,binding signal,ETV1,0.97
same,binding signal,ERF,0.994
CAAAGT,binding signal,ERG,0.947
same,binding signal,ELF1,1.03
same,binding signal,ELK4,0.954
same,binding signal,ETV4,0.962
same,binding signal,ETV1,0.969
same,binding signal,ERF,0.953
TCAAGA,binding signal,ERG,0.869
same,binding signal,ELF1,0.888
same,binding signal,ELK4,0.818
same,binding signal,ETV4,0.827
same,binding signal,ETV1,0.838
same,binding signal,ERF,0.851
ACTGGG,binding signal,ERG,0.872
same,binding signal,ELF1,0.836
same,binding signal,ELK4,0.852
same,binding signal,ETV4,0.851
same,binding signal,ETV1,0.864
same,binding signal,ERF,0.831
TACGAG,binding signal,ERG,0.893
same,binding signal,ELF1,0.933
same,binding signal,ELK4,0.9
same,binding signal,ETV4,0.963
same,binding signal,ETV1,0.852
same,binding signal,ERF,0.832
TAGTCA,binding signal,ERG,0.948
same,binding signal,ELF1,0.92
same,binding signal,ELK4,0.929
same,binding signal,ETV4,0.943
same,binding signal,ETV1,0.962
same,binding signal,ERF,0.892
CATTGG,binding signal,ERG,0.848
same,binding signal,ELF1,0.939
same,binding signal,ELK4,0.86
same,binding signal,ETV4,0.892
same,binding signal,ETV1,0.886
same,binding signal,ERF,1.05
GCATAC,binding signal,ERG,0.974
same,binding signal,ELF1,0.979
same,binding signal,ELK4,0.973
same,binding signal,ETV4,0.913
same,binding signal,ETV1,0.926
same,binding signal,ERF,0.868
TTGGAA,binding signal,ERG,0.997
same,binding signal,ELF1,0.95
same,binding signal,ELK4,0.83
same,binding signal,ETV4,0.974
same,binding signal,ETV1,0.992
same,binding signal,ERF,0.963
CTAAGG,binding signal,ERG,0.893
same,binding signal,ELF1,0.935
same,binding signal,ELK4,0.99
same,binding signal,ETV4,0.879
same,binding signal,ETV1,1.01
same,binding signal,ERF,0.9
GACTTG,binding signal,ERG,0.791
same,binding signal,ELF1,0.917
same,binding signal,ELK4,0.987
same,binding signal,ETV4,0.906
same,binding signal,ETV1,0.889
same,binding signal,ERF,0.766
GACATG,binding signal,ERG,0.93
same,binding signal,ELF1,0.966
same,binding signal,ELK4,0.914
same,binding signal,ETV4,0.879
same,binding signal,ETV1,0.909
same,binding signal,ERF,0.881
AGCACG,binding signal,ERG,0.855
same,binding signal,ELF1,0.914
same,binding signal,ELK4,0.879
same,binding signal,ETV4,0.977
same,binding signal,ETV1,0.901
same,binding signal,ERF,1.01
ATGCCT,binding signal,ERG,1.48
same,binding signal,ELF1,1.35
same,binding signal,ELK4,1.49
same,binding signal,ETV4,1.32
same,binding signal,ETV1,1.33
same,binding signal,ERF,1.42
AGTCTT,binding signal,ERG,0.918
same,binding signal,ELF1,0.926
same,binding signal,ELK4,0.884
same,binding signal,ETV4,0.931
same,binding signal,ETV1,0.872
same,binding signal,ERF,1.01
GCGATT,binding signal,ERG,0.91
same,binding signal,ELF1,0.893
same,binding signal,ELK4,0.964
same,binding signal,ETV4,0.981
same,binding signal,ETV1,0.927
same,binding signal,ERF,0.881
CCAAGT,binding signal,ERG,0.88
same,binding signal,ELF1,0.932
same,binding signal,ELK4,0.907
same,binding signal,ETV4,0.894
same,binding signal,ETV1,0.808
same,binding signal,ERF,0.999
GATCGA,binding signal,ERG,0.776
same,binding signal,ELF1,0.862
same,binding signal,ELK4,0.914
same,binding signal,ETV4,0.755
same,binding signal,ETV1,0.851
same,binding signal,ERF,0.849
GACCCC,binding signal,ERG,0.94
same,binding signal,ELF1,0.928
same,binding signal,ELK4,0.918
same,binding signal,ETV4,0.956
same,binding signal,ETV1,0.946
same,binding signal,ERF,0.859
TGTTGG,binding signal,ERG,0.913
same,binding signal,ELF1,0.967
same,binding signal,ELK4,0.856
same,binding signal,ETV4,0.872
same,binding signal,ETV1,0.903
same,binding signal,ERF,0.94
AAAGGC,binding signal,ERG,0.899
same,binding signal,ELF1,0.997
same,binding signal,ELK4,0.878
same,binding signal,ETV4,0.973
same,binding signal,ETV1,0.984
same,binding signal,ERF,0.931

# Rewritten with tabs: part of the list above
sequence	measurement	setting	value
TTGGGA	binding signal	ELF1	0.911
TCAAGA	binding signal	ERF	0.851
TACGAG	binding signal	ELF1	0.933
ATGCCT	binding signal	ERF	1.42
AAAGGC	binding signal	ETV4	0.973
same	binding signal	ERF	0.931

# Quoted at random: two entries already listed.
sequence,measurement,setting,value
GACATG,binding signal,ERG,0.93
ACCAAG,binding signal,ERG,0.924
